Assay results: PubChem BioAssay AID1347076 (National Center for Advancing Translational Sciences (NCATS), 2019)
The campaign covered roughly 400,000 compounds. About 13,000 (3.2%) were called active. Inconclusive means that the source gave no clear call. Such entries were picked first, then a sample of the others. Calls come from the whole dose curve; as a rule, active = well fitted cell-killing curve with a large enough effect; inconclusive = small, poorly fitted or top-dose-only effect, or effect the other way; inactive = flat fitted curve, though single readings scatter. Potencies beside an inconclusive call are fits to weak or partial responses and may not hold up.

Test: qHTS assay for MDR1-selective chemotherapeutics: Primary screen using the drug-selected MDR subline cells KB-V1; note: nearly all actives have a fitted effect of over 60% in size
Settings: KB-V1 MDR cells viability, CellTiter-Glo, 72 h; activity change, negative = cytotoxicity: at 46.1 µM (top of the series)
Outline: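 Cytotoxicity via CellTiter-Glo luminescence after 72 h compound exposure at 37 degrees C. Cells: drug-selected KB-V1 line, DMEM phenol-red free plus 10% FBS. Compounds tested at multiple concentrations; normalized data fitted to concentration-effect curves.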
% is set by controls: 0 for no effect and ±100 for the full control effect; potency is the fitted concentration of half-maximal effect.

Row | Structure (SMILES) | Potency | activity change, negative = cytotoxicity
1 | COc1cccc(C(=O)Nc2ccc(S(=O)(=O)N3CCCCC3)cc2)c1OC | inconclusive: 29.1 µM [cytotoxic, single point] | 
2 | COc1cccc(-n2c(SCC(=O)Nc3c(C)cc(C)cc3C)nc3c([nH]c4ccccc43)c2=O)c1 | inconclusive: 20.6 µM [cytotoxic, single point] | 
3 | O=C(CCc1ccc(S(=O)(=O)N2CCOCC2)cc1)Nc1ccc2c(c1)OCCO2 | inconclusive: 25.9 µM [cytotoxic, single point] | 
4 | CN(C)c1ccc(/C=N/NC(=O)C(=O)/C=C2\NC3(CCCC3)Cc3ccccc32)cc1 | active: 18.4 µM | 
5 | COc1cc(NC(=O)Nc2ccc(C)cc2)cc([N+](=O)[O-])c1 | inconclusive: 18.4 µM [cytotoxic, single point] | 
6 | N#Cc1cccc(OC(=O)C2CCN(C(=O)c3ccc(F)cc3)CC2)c1 | inactive | 
7 | Cc1onc(-c2c(F)cccc2Cl)c1C(=O)Nc1cccc(Cn2cccn2)c1 | active: 20.6 µM | 
8 | Fc1ccc2nc(Nc3nc4cc5c(cc4s3)OCO5)sc2c1 | inactive | 
9 | COc1cccc(C(=O)Nc2cc3c(cc2Br)OCCCO3)c1 | inconclusive: 18.4 µM [cytotoxic, single point] | 
10 | N#CC1CCN(C(=O)c2ccc3c(Cl)c4c(nc3c2)CCCC4)CC1 | inconclusive: 2.91 µM [rising, full curve, poor fit] | 
11 | O=C(c1ccc([N+](=O)[O-])o1)N1CCN(c2nc3c(F)cc(F)cc3s2)CC1 | inconclusive: 29.1 µM [cytotoxic, single point] | 
12 | Cc1ccc(C(=O)Nc2ccn(Cc3ccc(F)cc3)n2)o1 | inconclusive: 18.4 µM [cytotoxic, single point] | 
13 | CNS(=O)(=O)c1cn(CC(=O)NCc2cccc(OC)c2)cc1S(=O)(=O)NC | inactive | 
14 | CCc1ccc(-c2cn(C3CCCCC3)c(=S)[nH]2)cc1 | inconclusive: 16.4 µM [cytotoxic, single point] | 
15 | CCN(CC)S(=O)(=O)c1cc(C(=O)Nc2ccccc2[N+](=O)[O-])ccc1Cl | inconclusive: 16.4 µM [cytotoxic, single point] | 
16 | COc1ccc(NC(=O)C(Cc2ccccc2)NS(=O)(=O)c2ccc3c(c2)CCC(=O)N3)c(OC)c1 (stereo not drawn) | inconclusive: 29.1 µM [rising, partial curve, poor fit] | 
17 | CCN(CC)CC(=O)Nc1sc2c(c1C(=O)c1ccccc1C)CCC2 | inconclusive: 11.6 µM [cytotoxic, partial curve] | 
18 | CN(C)C(CNC(=O)c1cc(Br)ccc1Cl)c1ccco1 (stereo not drawn) | inconclusive: 18.4 µM [cytotoxic, single point] | 
19 | CC(C)C[C@@H](CO)N1CCN(Cc2ccc(Br)cc2)CCC1=O | inconclusive: 20.6 µM [cytotoxic, single point] | 
20 | O=C(c1ccc(F)cc1)C(CCCCCC(CN1CCOCC1)C(=O)c1ccc(F)cc1)CN1CCOCC1 (stereo not drawn) | inactive | 
21 | O=C(NC1CCCCCC1)c1cc2c(=O)n3ccccc3nc2s1 | inactive | 
22 | Cc1nonc1OCCNC(=O)C12CC3CC(CC(C3)C1)C2 | active: 23.1 µM | 
23 | CCn1nc(C)c(CNC(=O)CC2C(=O)NCCN2Cc2ccc(C)o2)c1C (stereo not drawn) |  | inconclusive: 39.1%

Row | Structure (SMILES) | Potency | activity change, negative = cytotoxicity
24 | CCCCOc1ccc(C2=NC(c3ccncc3)=Nc3ccc(OCC)cc3N2)cc1 | inconclusive: 14.6 µM [rising, partial curve, poor fit] | 
25 | NC(=O)C1(N2CCCCC2)CCN(C(=O)NC2CCCCC2)CC1 | inconclusive: 20.6 µM [rising, single point] | 
26 | COc1cc(NC(=O)c2cc(S(=O)(=O)N3CCCCC3)c[nH]2)cc(OC)c1 | inconclusive: 16.4 µM [rising, single point] | 
27 | CC1(CCc2ccc3c(c2)OCO3)NCCc2c1[nH]c1ccccc21 (stereo not drawn) | inconclusive: 32.6 µM [cytotoxic, single point] | 
28 | CCOc1ccc(C2NC(=O)Cc3cc(OC)c(OC)cc32)cc1 (stereo not drawn) | inactive | 
29 | CC(C)(C)NC(=O)Nc1ccc(Cn2cc(C(F)(F)F)ccc2=O)cc1 | inactive | 
30 | O=C(COC(=O)Cc1ccc(-c2ccccc2)cc1)NCc1ccccc1 | inactive | 
31 | O=C(NCCc1ccccc1)c1cccnc1N1CCCCCC1 | inconclusive: 13 µM [cytotoxic, partial curve] | 
32 | Cc1nn(-c2ccc(F)cc2)c(-n2cccc2)c1C(=O)NCCc1ccc(Cl)cc1 | inconclusive: 18.4 µM [cytotoxic, partial curve] | 
33 | Cn1c(SCc2nc(-c3ccccc3)no2)nnc1-c1cccs1 | inconclusive: 18.4 µM [cytotoxic, partial curve, poor fit] | 
34 | Cc1cccc(-c2nsc(SCC(=O)Nc3cc(C)on3)n2)c1 | inconclusive: 29.1 µM [cytotoxic, single point] | 
35 | CC(=O)Nc1ccc(S(=O)(=O)Oc2cccc(N3C(=O)C4CCCCC4C3=O)c2)cc1 (stereo not drawn) | inconclusive: 16.4 µM [cytotoxic, single point] | 
36 | CCN(CC)CCOC(=O)c1ccc(NC(=O)Cn2ncc3c2-c2cc(C)ccc2OC3)cc1 | inconclusive: 2.59 µM [rising, full curve] | 
37 | COc1ccccc1N1CCN(C(=O)CSc2nnc(-c3ccoc3C)o2)CC1 | inconclusive: 14.6 µM [cytotoxic, partial curve] | 
38 | COc1c2ccc(C(=O)NCCCCc3ccccc3)cc2nn1C | inconclusive: 0.092 µM [cytotoxic, full curve, poor fit] | 
39 | CCOC(=O)C(=O)N(C)c1c(CC)nc2c(OCc3ccc(OC(F)F)cc3)cccn12 | inactive | 
40 | CCOc1ccc(NC(=O)c2c[nH]n3c(=O)cc(C4CCN(C(=O)OC(C)(C)C)CC4)nc23)cc1 | inconclusive: 8.2 µM [rising, partial curve, poor fit] | 
41 | Nc1nc(SCC(=O)Nc2ccc(Cl)cc2)[nH]c(=O)c1-c1ccccc1 | inactive | 
42 | COc1ccc(C(C(=O)NC2CCCC2)N(C(=O)CNC(=O)c2ccco2)c2cccnc2)cc1 (stereo not drawn) | inactive | 
43 | COc1ccc(NC(=O)CSc2nc3nc(C)c(Cc4ccccc4)c(C)n3n2)cc1OC | inactive | 
44 | COc1cc(C2c3sc(=O)[nH]c3SC3C(=O)N(c4ccc(Br)cc4)C(=O)C32)ccc1O (stereo not drawn) | inconclusive: 0.731 µM [rising, full curve, poor fit] | 
45 | O=C(O)Cn1c(=O)c2cccn2c2ccccc21 | inconclusive: 13 µM [rising, partial curve, poor fit] | 
46 | O=C1CCN(C(=S)NCc2ccccc2)CC1 | inconclusive: 10.3 µM [rising, partial curve] | 

Exported in CSV form: 21 of the compounds above
Row,Structure (SMILES),Potency,"activity change, negative = cytotoxicity"
24,CCCCOc1ccc(C2=NC(c3ccncc3)=Nc3ccc(OCC)cc3N2)cc1,"inconclusive: 14.6 µM [rising, partial curve, poor fit]",
25,NC(=O)C1(N2CCCCC2)CCN(C(=O)NC2CCCCC2)CC1,"inconclusive: 20.6 µM [rising, single point]",
26,COc1cc(NC(=O)c2cc(S(=O)(=O)N3CCCCC3)c[nH]2)cc(OC)c1,"inconclusive: 16.4 µM [rising, single point]",
27,CC1(CCc2ccc3c(c2)OCO3)NCCc2c1[nH]c1ccccc21 (stereo not drawn),"inconclusive: 32.6 µM [cytotoxic, single point]",
28,CCOc1ccc(C2NC(=O)Cc3cc(OC)c(OC)cc32)cc1 (stereo not drawn),inactive,
29,CC(C)(C)NC(=O)Nc1ccc(Cn2cc(C(F)(F)F)ccc2=O)cc1,inactive,
30,O=C(COC(=O)Cc1ccc(-c2ccccc2)cc1)NCc1ccccc1,inactive,
31,O=C(NCCc1ccccc1)c1cccnc1N1CCCCCC1,"inconclusive: 13 µM [cytotoxic, partial curve]",
32,Cc1nn(-c2ccc(F)cc2)c(-n2cccc2)c1C(=O)NCCc1ccc(Cl)cc1,"inconclusive: 18.4 µM [cytotoxic, partial curve]",
33,Cn1c(SCc2nc(-c3ccccc3)no2)nnc1-c1cccs1,"inconclusive: 18.4 µM [cytotoxic, partial curve, poor fit]",
34,Cc1cccc(-c2nsc(SCC(=O)Nc3cc(C)on3)n2)c1,"inconclusive: 29.1 µM [cytotoxic, single point]",
35,CC(=O)Nc1ccc(S(=O)(=O)Oc2cccc(N3C(=O)C4CCCCC4C3=O)c2)cc1 (stereo not drawn),"inconclusive: 16.4 µM [cytotoxic, single point]",
36,CCN(CC)CCOC(=O)c1ccc(NC(=O)Cn2ncc3c2-c2cc(C)ccc2OC3)cc1,"inconclusive: 2.59 µM [rising, full curve]",
37,COc1ccccc1N1CCN(C(=O)CSc2nnc(-c3ccoc3C)o2)CC1,"inconclusive: 14.6 µM [cytotoxic, partial curve]",
38,COc1c2ccc(C(=O)NCCCCc3ccccc3)cc2nn1C,"inconclusive: 0.092 µM [cytotoxic, full curve, poor fit]",
39,CCOC(=O)C(=O)N(C)c1c(CC)nc2c(OCc3ccc(OC(F)F)cc3)cccn12,inactive,
40,CCOc1ccc(NC(=O)c2c[nH]n3c(=O)cc(C4CCN(C(=O)OC(C)(C)C)CC4)nc23)cc1,"inconclusive: 8.2 µM [rising, partial curve, poor fit]",
41,Nc1nc(SCC(=O)Nc2ccc(Cl)cc2)[nH]c(=O)c1-c1ccccc1,inactive,
42,COc1ccc(C(C(=O)NC2CCCC2)N(C(=O)CNC(=O)c2ccco2)c2cccnc2)cc1 (stereo not drawn),inactive,
43,COc1ccc(NC(=O)CSc2nc3nc(C)c(Cc4ccccc4)c(C)n3n2)cc1OC,inactive,
44,COc1cc(C2c3sc(=O)[nH]c3SC3C(=O)N(c4ccc(Br)cc4)C(=O)C32)ccc1O (stereo not drawn),"inconclusive: 0.731 µM [rising, full curve, poor fit]",

(listing goes on)

Row | Structure (SMILES) | Potency | activity change, negative = cytotoxicity
47 | CCOC(=O)c1cc(-c2ccc(F)cc2)n(CC(=O)NC2CCCCCC2)c1C | inconclusive: 6.51 µM [cytotoxic, partial curve] | 
48 | COc1cc(OC)cc(C(=O)Nc2ccc([N+](=O)[O-])cn2)c1 | inconclusive: 11.6 µM [rising, partial curve] | 
49 | CCCn1c(=O)n(C)c(=O)c2c(SCC(=O)NC34CC5CC(CC(C5)C3)C4)nc(CC(C)C)nc21 | inactive | 
50 | N#CC(c1ccc([N+](=O)[O-])cc1)C(CC(=O)c1ccccc1)c1ccccc1 (stereo not drawn) | inconclusive: 16.4 µM [cytotoxic, partial curve, poor fit] | 
51 | N#CC1(NC(=O)COc2ccc(S(=O)(=O)N3CCCC3)cc2[N+](=O)[O-])CCCCC1 | inconclusive: 14.6 µM [cytotoxic, partial curve, poor fit] | 
52 | COC(C(=O)C(O)C(C)O)C1Cc2cc3cc(OC4CC(OC5CC(O)C(O)C(C)O5)C(O)C(C)O4)c(C)c(O)c3c(O)c2C(=O)C1OC1CC(OC2CC(OC3CC(O)C(OC)C(C)O3)C(O)C(C)O2)C(O)C(C)O1 (stereo not drawn) | inactive | 
53 | CCCn1c(=O)c2c(nc3n2CCN3Cc2ccco2)n(C)c1=O | inactive | 
54 | CN(C)S(=O)(=O)c1ccc(NC(=O)N2CCOCC2)cc1 | inconclusive: 20.6 µM [rising, single point] | 
55 | O=C(Cc1ccccc1)Nc1cc(Cl)ccc1Sc1ccccc1 | active: 18.4 µM | 
56 | CCCCN1CCc2nc(Nc3ccc(OC)cc3OC)ncc2C1 | inactive | 
57 | COc1cccc(CSc2nc3ccccc3cc2C=O)c1 | inconclusive: 6.51 µM [cytotoxic, full curve] | 
58 | CC(C)c1cc(CNC(=O)CCc2nnc(CCCCc3ccccc3)o2)on1 | inconclusive: 29.1 µM [cytotoxic, single point] | 
59 | COC1=C(N)C(=O)c2nc(C)ccc2C1=O | inconclusive: 29.1 µM [cytotoxic, single point] | 
60 | COc1ccc(SCCN2CC[C@@H](NC(=O)OCc3ccccc3)CCC2=O)cc1 | inconclusive: 11.6 µM [cytotoxic, partial curve] | 
61 | COc1cccc2cc(-c3ccnc(N)n3)oc12 | inconclusive: 18.4 µM [cytotoxic, single point] | 
62 | Cc1cccc(OCCCC(=O)Nc2nccs2)c1 | inconclusive: 29.1 µM [cytotoxic, single point] | 
63 | CCOc1ccc2nc(N(Cc3ccccc3)C(=O)CCNC(C)=O)sc2c1 | inconclusive: 10.3 µM [cytotoxic, partial curve] | 
64 | CCOC(=O)c1ccc(NC(=O)CN2C(=O)CSC(C)C2=O)cc1 (stereo not drawn) | inconclusive: 23.1 µM [rising, partial curve, poor fit] | 
65 | Nc1ccc(Nc2nc3ccccc3[nH]2)cc1 | inactive | 
66 | COc1cccc(NC(=O)COc2ccccc2)c1 | inactive | 
67 | CCC1CCC(C(=O)NC(C(=O)NCCN2CCOCC2)C(C)C)CC1 (stereo not drawn) | inconclusive: 18.4 µM [cytotoxic, single point] | 
68 | Cc1ccc(C)c(N2CCN(C(=O)c3cc4c(=O)n(Cc5ccccc5)ccc4nc3C)CC2)c1 | inactive | 
